{"source": "patent US5506122A", "about": "“Process for producing nucleosides” (Yamasa Shoyu Kabushiki Kaisha, priority 1989, dated 1996)", "key": {"[1]": {"biological_target": "T1, purine nucleoside phosphorylase (Geobacillus stearothermophilus, UniProt P77834)", "T1 construct": "nucleoside phosphorylase obtained by extraction/purification from Bacillus stearothermophilus TH6-2; endogenous in cells; host or cells: Bacillus stearothermophilus TH6-2 (FERM BP-2758), enzyme purified in house from the wild cells", "T1 sequence (P77834 1-274)": "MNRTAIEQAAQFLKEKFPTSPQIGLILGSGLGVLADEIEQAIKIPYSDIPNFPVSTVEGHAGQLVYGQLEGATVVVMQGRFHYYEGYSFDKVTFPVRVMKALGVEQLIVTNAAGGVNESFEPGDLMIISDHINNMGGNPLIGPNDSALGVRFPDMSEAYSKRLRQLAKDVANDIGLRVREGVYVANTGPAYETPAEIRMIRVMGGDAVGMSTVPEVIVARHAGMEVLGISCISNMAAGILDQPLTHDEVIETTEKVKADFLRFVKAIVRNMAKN", "experiment": "Substrate specificity: phosphorolysis of purine nucleoside substrates by purified enzyme", "assay_type": "biochemical, Bacillus stearothermophilus TH6-2", "conditions": "10 mM nucleoside, 50 mM potassium dihydrogenphosphate, pH 8.0, 50° C., 10 minutes", "procedure": "Into 1.0 ml of a substrate solution (aqueous solution of pH 8.0 containing 20 mM inosine and 0.1M potassium dihydrogenphosphate) is added 20 μl of an enzyme solution (50 mM acetate buffer (pH 6.0) containing 1 μg of purified enzyme), and the reaction is carried out at 50° C. for 10 minutes. Then the reaction is stopped by addition of HCl to a final concentration of 0.1N, and also cooling at 0° C. for 10 minutes. Next, the reaction is subjected to centrifugation, and the supernatant obtained is then subjected to the HPLC method (column: YMC A-312 (manufactured by Yamamura Kagaku Kenkyusho, K.K.), eluent: 20 mM Tris-HCl buffer (pH 7.5) containing 5.0% acetonitrile, detection: 260 nm) to quantitate the hypoxanthine formed. The enzyme amount forming 1 μmol of hypoxanthine per one minute is defined as one unit (\"U\").\n(§1) By the use of an aqueous solution of pH 8.0 containing 10 mM of a nucleoside and 50 mM of potassium dihydrogenphosphate as a substrate solution, the reaction is carried out at 50° C. for 10 minutes, and after the reaction, except for quantitating the base of the nucleoside according to the HPLC method, the same method as in the assay of purine nucleoside phosphorylase activity is conducted."}, "[2]": {"biological_target": "T2, pyrimidine nucleoside phosphorylase (Geobacillus stearothermophilus, UniProt P77836)", "T2 construct": "nucleoside phosphorylase obtained by extraction/purification from Bacillus stearothermophilus TH6-2; endogenous in cells; host or cells: Bacillus stearothermophilus TH6-2 (FERM BP-2758), enzyme purified in house from the wild cells", "T2 sequence (P77836 1-433)": "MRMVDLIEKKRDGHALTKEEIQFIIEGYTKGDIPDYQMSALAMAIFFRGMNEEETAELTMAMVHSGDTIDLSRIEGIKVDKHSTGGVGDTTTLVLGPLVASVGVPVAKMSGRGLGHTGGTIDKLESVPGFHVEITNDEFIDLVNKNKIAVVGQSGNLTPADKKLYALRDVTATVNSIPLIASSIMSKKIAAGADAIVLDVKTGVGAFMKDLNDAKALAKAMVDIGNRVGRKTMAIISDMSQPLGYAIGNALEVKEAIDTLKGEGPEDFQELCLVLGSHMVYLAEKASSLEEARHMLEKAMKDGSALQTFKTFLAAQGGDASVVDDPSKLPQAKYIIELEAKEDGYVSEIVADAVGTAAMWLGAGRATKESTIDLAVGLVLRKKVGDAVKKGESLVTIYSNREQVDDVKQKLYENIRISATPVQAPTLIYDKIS", "experiment": "Substrate specificity: phosphorolysis of pyrimidine nucleoside substrates by purified enzyme", "assay_type": "biochemical, Bacillus stearothermophilus TH6-2", "conditions": "10 mM nucleoside, 50 mM potassium dihydrogenphosphate, pH 8.0, 50° C., 10 minutes", "procedure": "Except for using uridine in place of inosine in the substrate solution and quantitating uracil according to the HPLC method, the same method as in the above-described assay of purine nucleoside phosphorylase activity is conducted. The amount of enzyme forming 1 μmol of uracil per one minute is defined as one unit.\nas §1"}}, "note": "At least one structure is not confirmed: it was looked up by name or label, or the drawing left a doubt."}
{"smiles": "Nc1ncnc2c1ncn2[C@@H]1O[C@H](CO)[C@@H](O)[C@@H]1O", "note": "[Arabinofuranosyl adenine]", "values": [{"measurement": "Amount of Base Formed", "setting": "[1]", "value": 0, "unit": "μmol/10 min."}]}
{"smiles": "O=c1ccn([C@@H]2O[C@H](CO)[C@@H](O)[C@@H]2O)c(=O)[nH]1", "note": "[Arabinofuranosyl uracil]", "values": [{"measurement": "Amount of Base Formed", "setting": "[2]", "value": 0, "unit": "μmol/10 min."}]}
